Measurements published in paper PMC8481544.
No constants are given. Whether binding was seen depends on the method and setting. In cells and extracts the contact can be indirect. One block for each substance: values may come before it.

The chains behind the UniProt entries cited, without tags or fusion partners.
UniProt O43791: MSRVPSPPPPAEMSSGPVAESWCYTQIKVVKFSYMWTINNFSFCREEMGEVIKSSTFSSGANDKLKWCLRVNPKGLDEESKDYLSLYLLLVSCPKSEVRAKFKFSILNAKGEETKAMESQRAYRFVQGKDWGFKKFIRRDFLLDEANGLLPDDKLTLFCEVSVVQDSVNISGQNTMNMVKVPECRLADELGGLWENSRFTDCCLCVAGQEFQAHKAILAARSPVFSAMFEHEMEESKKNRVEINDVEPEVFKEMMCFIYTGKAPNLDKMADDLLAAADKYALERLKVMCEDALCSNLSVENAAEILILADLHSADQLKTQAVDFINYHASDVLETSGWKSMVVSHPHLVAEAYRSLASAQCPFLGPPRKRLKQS
UniProt Q96KQ7: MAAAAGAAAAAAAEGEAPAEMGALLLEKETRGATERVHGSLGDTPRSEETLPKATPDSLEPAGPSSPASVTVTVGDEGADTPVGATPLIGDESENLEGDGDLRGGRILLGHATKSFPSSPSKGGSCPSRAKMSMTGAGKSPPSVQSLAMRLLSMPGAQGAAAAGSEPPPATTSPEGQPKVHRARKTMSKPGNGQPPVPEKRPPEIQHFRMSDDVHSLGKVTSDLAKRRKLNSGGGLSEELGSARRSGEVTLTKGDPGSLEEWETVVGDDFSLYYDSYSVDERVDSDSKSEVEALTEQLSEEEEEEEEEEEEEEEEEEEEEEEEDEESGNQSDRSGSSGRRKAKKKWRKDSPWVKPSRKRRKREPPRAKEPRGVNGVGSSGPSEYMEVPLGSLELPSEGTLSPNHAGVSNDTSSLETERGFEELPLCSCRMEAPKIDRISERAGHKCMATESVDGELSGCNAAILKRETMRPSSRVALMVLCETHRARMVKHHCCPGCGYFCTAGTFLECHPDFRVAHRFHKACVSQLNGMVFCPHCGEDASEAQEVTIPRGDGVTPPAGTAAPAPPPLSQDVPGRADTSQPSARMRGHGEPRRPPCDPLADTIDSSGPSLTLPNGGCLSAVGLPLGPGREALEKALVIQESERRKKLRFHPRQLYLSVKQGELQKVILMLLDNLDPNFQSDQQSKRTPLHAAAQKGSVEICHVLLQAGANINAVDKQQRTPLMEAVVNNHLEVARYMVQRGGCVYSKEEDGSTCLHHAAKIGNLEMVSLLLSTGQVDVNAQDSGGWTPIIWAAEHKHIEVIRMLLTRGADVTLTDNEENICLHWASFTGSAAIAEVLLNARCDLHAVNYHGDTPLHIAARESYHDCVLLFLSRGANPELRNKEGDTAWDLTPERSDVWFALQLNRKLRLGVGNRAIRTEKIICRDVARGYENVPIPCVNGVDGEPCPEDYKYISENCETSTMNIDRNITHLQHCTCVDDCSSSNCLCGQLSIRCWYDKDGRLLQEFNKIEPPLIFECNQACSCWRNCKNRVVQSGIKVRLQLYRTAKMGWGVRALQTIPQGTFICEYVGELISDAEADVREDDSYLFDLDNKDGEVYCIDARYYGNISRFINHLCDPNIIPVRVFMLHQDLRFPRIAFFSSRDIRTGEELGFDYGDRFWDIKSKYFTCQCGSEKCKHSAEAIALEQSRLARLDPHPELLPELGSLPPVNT

Experiments:
[1] = target: endogenous SPOP (22Rv1 cells) (human (endogenous in 22Rv1)) (UniProt O43791); assay: co-IP; endogenous proteins of 22Rv1 cells treated with 20 µM MG132 for 8 h; antibody and protein A/G beads at 4 °C overnight
[2] = target: Flag-G9a, expressed in 293T cells (UniProt Q96KQ7); assay: co-IP; 293T cells transfected with both proteins; 20 µM MG132 for 8 h (told for Fig. 2e and 3a); lysis buffer 50 mM Tris-HCl pH 7.5, 150 mM NaCl, 0.5% Nonidet P-40; antibody and protein A/G beads at 4 °C overnight
[3] = target: endogenous G9a (22Rv1 cells) (human (endogenous in 22Rv1)) (UniProt Q96KQ7); assay: co-IP; endogenous proteins of 22Rv1 cells treated with 20 µM MG132 for 8 h; antibody and protein A/G beads at 4 °C overnight

binding [1]: no binding
Substance: endogenous G9a (22Rv1 cells) (from UniProt Q96KQ7 1-1210)

binding [2]: no binding
Substance: SPOP wild type, ectopically expressed in 293T cells (from UniProt O43791 1-374)

binding [3]: no binding
Substance: endogenous SPOP (22Rv1 cells) (from UniProt O43791 1-374)
